Some results were stated once for a whole list of compounds, not compound by compound.
Assay: pH-stat fluorometric transport assay (HPTS-loaded liposomes)
Format: biochemical
Conditions: LUVs, NaCl extra- and intravesicular buffers, FIG. 7 and FIG. 12
Excerpt: This Example illustrates that the compound of Example 2 mediates chloride release when incorporated into liposomes. The liposome-based pH-stat fluorometric assay is an assay routinely used for identification of physiologically relevant ionophores, which are disclosed in (a) Deng, G., Dewa, T. and Regen, S. L. J. Am. Chem. Soc. 1996, 118, 8975; (b) Schlesinger, P. H., Ferdani, R., Liu, J., Pajewska, J., Pajewski, R., Saito, M., Shabany, H. and Gokel, G. W. J. Am. Chem. Soc. 2002, 124, 1848; (c) Sidorov, V., Kotch, F. W., Abdrakhmanova, G., Mizani, R., Fettinger, J. C. and Davis, J. T. J. Am. Chem. Soc. 2002, 124, 2267; (d) Sidorov, V., Kotch, F. W., Kuebler, J. L., Lam, Y.-F. and Davis, J. T. J. Am. Chem. Soc. 2003, 125, 2840; and (e) Baumeister, B., Sakai, N. and Matile, S. Angew. Chem., Int. Ed. 2000, 39, 1955, all of which are incorporated herein by reference. For example, in this assay, a controlled amount of the base and potential ionophore is added to a suspension of liposomes containing a pH-sensitive dye, 8-hydroxypyrene-1,3,6-trisulfonate (HPTS, pyranine). The resulting pH gradient across the bilayer membrane causes the efflux of hydronium ions or the influx of hydroxide ions and builds up an electrostatic potential. This potential can be compensated by the efflux of anions or influx of cations (H^+/M^+ or OH^−/A^− antiport and H^+/A^− or M^+/OH^− symport mechanisms are possible). If the compound of interest mediates such ion transport, the efflux of hydronium ions or the influx of hydroxide ions continues altering the […] pH and the fluorescence of the reporter dye.
Example 2-mediated chloride release was determined in large unilamellar vesicles (LUVs) of 100 nm average dimension, as reported in Sidorov, V., Kotch, F. W., Abdrakhmanova, G., Mizani, R., Fettinger, J. C. and Davis, J. T. J. Am. Chem. Soc. 2002, 124, 2267. […] Importantly, Example 2 mediated electrolyte exchange with high anion selectivity. It mediated electrolyte exchange in the presence of chloride but not in the presence of sulfate (see FIG. 6).
In the case of CC(C)CNC(=O)[C@@H](CC(C)C)ONC(=O)c1ccccc1 [Example 6], the “chloride transport across lipid bilayers of chloride-containing liposomes” value (shortened to “chloride transport across lipid bilayers”) is reported as “can also mediate chloride transport”.
With CCCCCCCCCCCCCCNC(=O)[C@@H](CC(C)C)ONC(=O)c1cccc(C(=O)NO[C@H](CC(C)C)C(=O)NCCCCCCCCCCCCCC)c1 [Example 4] the “chloride transport across lipid bilayers” value was “can also mediate chloride transport”.
In the case of CC(C)CNC(=O)[C@H](CC(C)C)NC(=O)c1cccc(C(=O)N[C@@H](CC(C)C)C(=O)NCC(C)C)c1 [Example 8], the “chloride transport across lipid bilayers” value is reported as “can also mediate chloride transport”.
For CCCCCCCCCCCCCCCCCCNC(=O)[C@@H](CC(C)C)ONC(=O)c1cccc(C(=O)NO[C@H](CC(C)C)C(=O)NCCCCCCCCCCCCCCCCCC)c1 [Example 5], the “chloride transport across lipid bilayers” value was “can also mediate chloride transport”.
In the case of CC(C)C[C@@H](ONC(=O)c1cccc(C(=O)NO[C@H](CC(C)C)C(=O)OC(C)(C)C)c1)C(=O)OC(C)(C)C [Example 1], the “chloride transport across lipid bilayers” value is reported as “can also mediate chloride transport”.
With CC(C)CNC(=O)[C@@H](CC(C)C)ONC(=O)c1ccc(C(=O)NO[C@H](CC(C)C)C(=O)NCC(C)C)cc1 [Example 10] the “chloride transport across lipid bilayers” value was “can also mediate chloride transport”.
With CC(C)CNC(=O)[C@@H](CC(C)C)ONC(=O)c1cccc(C(=O)NO[C@H](CC(C)C)C(=O)NCC(C)C)n1 [Example 7] the “chloride transport across lipid bilayers” value was “can also mediate chloride transport”.
For CC(C)CNC(=O)[C@H](CC(C)C)OC(=O)c1cccc(C(=O)O[C@@H](CC(C)C)C(=O)NCC(C)C)c1 [Example 9], the “chloride transport across lipid bilayers” value was “can also mediate chloride transport”.
In the case of CC(C)CNC(=O)[C@@H](CC(C)C)ONC(=O)CCCC(=O)NO[C@H](CC(C)C)C(=O)NCC(C)C [Example 13], the “chloride transport across lipid bilayers” value is reported as “can also mediate chloride transport”.
In the case of CC(C)CNC(=O)[C@@H](CC(C)C)ONC(=O)c1cc(C(=O)NO[C@H](CC(C)C)C(=O)NCC(C)C)cc(C(=O)NO[C@H](CC(C)C)C(=O)NCC(C)C)c1 [Example 11], the “chloride transport across lipid bilayers” value is reported as “can also mediate chloride transport”.
With CCCCCCCCCCNC(=O)[C@@H](CC(C)C)ONC(=O)c1cccc(C(=O)NO[C@H](CC(C)C)C(=O)NCCCCCCCCCC)c1 [Example 3] the “chloride transport across lipid bilayers” value was “can also mediate chloride transport”.
